Measurements published in the supplement of paper PMC12823440, “Inhibitors supercharge kinase turnover through native proteolytic circuits” (Nature, 2025).
Counter-ions that a name gives are not always drawn. The list shows a part of the results. Hit calls seldom repeat between salt and free forms of one compound.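 Kinases were expressed as nanoluciferase fusions in K562 cells and luminescence was read every 4 h between 2 and 18 h as percent of control, DMSO set to 100% and a positive control to 0%. A time point counts as decreased when the signal drops significantly (2 sigma). The hit call is the authors' own, does not follow from the count of time points alone, and its rule is not shown.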

Protein sequences, listed by entry. Tags and fused reporters are not part of them.
UniProt Q9Y463, whole entry, looked up: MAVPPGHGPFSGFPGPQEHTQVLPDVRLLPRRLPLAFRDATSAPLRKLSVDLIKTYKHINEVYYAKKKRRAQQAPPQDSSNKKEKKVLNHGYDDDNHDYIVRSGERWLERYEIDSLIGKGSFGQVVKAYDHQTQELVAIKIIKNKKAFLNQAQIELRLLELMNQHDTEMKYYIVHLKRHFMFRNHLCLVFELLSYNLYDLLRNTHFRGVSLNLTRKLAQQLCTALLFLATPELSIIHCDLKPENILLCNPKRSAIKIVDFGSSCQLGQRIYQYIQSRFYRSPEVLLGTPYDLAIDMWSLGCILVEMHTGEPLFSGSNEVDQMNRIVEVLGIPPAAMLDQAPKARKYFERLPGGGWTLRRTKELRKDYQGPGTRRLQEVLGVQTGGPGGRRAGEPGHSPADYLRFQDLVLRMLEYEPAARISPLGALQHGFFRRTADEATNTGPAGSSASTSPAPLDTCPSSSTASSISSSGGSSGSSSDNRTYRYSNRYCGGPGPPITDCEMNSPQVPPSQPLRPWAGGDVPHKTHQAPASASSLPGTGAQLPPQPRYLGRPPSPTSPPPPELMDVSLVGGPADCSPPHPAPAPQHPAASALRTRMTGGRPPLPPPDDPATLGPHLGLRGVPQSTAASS

Molecular target: DYRK1B (UniProt Q9Y463)
Assay: kinase-Nluc reporter destabilization hit call (1 = scored as downregulated) (binary); higher = compound decreases kinase abundance
Conditions: K562; 2-18 h

kinase-Nluc reporter destabilization hit call, inactive:
N#Cc1ccc2[nH]c(O)c(-c3ccc(CN4CCOCC4)cn3)c2c1 (10 µM) 0
O=C1NCCc2[nH]c(-c3ccnc(-c4cnc5ccccc5c4)c3)cc21 (10 µM) 0
Oc1cc(O)cc(/C=C/c2ccc(O)c(O)c2)c1 [Piceatannol] (10 µM) 0
O=C(NOC[C@H](O)CO)c1ccc(F)c(F)c1Nc1ccc(I)cc1F (2.5 µM) 0
Cn1c(=O)n(-c2ccc(C(C)(C)C#N)cc2)c2c3cc(-c4cnc5ccccc5c4)ccc3ncc21 [Dactolisib (Tosylate)] (10 µM) 0
CCCCNc1ncc(-c2ccc(CN3CCOCC3)cn2)c(NC2CCC(O)CC2)n1 (stereo unspecified) (10 µM) 0
O=C(Nc1cc(C(F)(F)F)ccc1N1CCN(Cc2ccccn2)CC1)c1ccc(-c2ccncc2)o1 (10 µM) 0
CC[C@H](CO)Nc1nc(NCc2ccccc2)c2ncn(C(C)C)c2n1 [Seliciclib] (10 µM) 0
COC(=O)c1ccc2c(C(=Nc3ccc(N(C)C(=O)CN4CCN(C)CC4)cc3)c3ccccc3)c(O)[nH]c2c1 [Nintedanib] (2.5 µM) 0
COc1cc(F)cc([C@@H](CO)NC(=O)[C@@H](C)N2Cc3ccc(-c4nc(NC5CCOCC5)ncc4Cl)cc3C2=O)c1 [ERK1/2 inhibitor 2] (10 µM) 0
CC(C)c1ccc2oc3nc(N)c(C(=O)O)cc3c(=O)c2c1 [Amlexanox] (10 µM) 0
CN(C)C[C@@H]1CCn2cc(c3ccccc32)C2=C(C(=O)NC2=O)c2cn(c3ccccc23)CCO1 [Ruboxistaurin (hydrochloride)] (10 µM) 0
CCc1nc(-c2cccc(C)c2)c(-c2ccnc(NC(=O)c3ccccc3)c2)s1 (10 µM) 0
CCOc1cc2ncc(-c3cc(N)nc(F)c3)n2cc1S(=O)(=O)C(C)(C)C (10 µM) 0
CC(C)(/C=C(\C#N)C(=O)N1CCC[C@@H](n2nc(-c3ccc(Oc4ccccc4)cc3F)c3c(N)ncnc32)C1)N1CCN(C2COC2)CC1 (2.5 µM) 0
CCCn1cnc2c(NCc3ccccc3)nc(NC(CC)CO)nc21 (stereo unspecified) [Ca2+ channel agonist 1] (2.5 µM) 0
Brc1c(Br)c(Br)c2n[nH]nc2c1Br (10 µM) 0
Nc1nc(OCC2CCCCC2)c2[nH]cnc2n1 (10 µM) 0
COc1ccc(Oc2cc(NCCC(F)(F)F)c3ncc(-c4ccc(C(=O)NC5CC5)c(C)c4)n3n2)c(F)c1F (2.5 µM) 0
COc1cc(C(=O)NC2CCN(C)CC2)c(F)cc1Nc1ncc2c(n1)N(C1CCCC1)CC(F)(F)C(=O)N2C [TAK-960 (dihydrochloride)] (2.5 µM) 0
COc1ccc(NC(=O)N2CCN(c3nc(N)nc4c3cnn4C)[C@@H](C)C2)c(C)c1 (10 µM) 0
O=C(Nc1ccc(-c2ccnc(Nc3ccc(N4CCOCC4)cc3)n2)cc1)C1CCCN1 (stereo unspecified) (10 µM) 0
COc1nccc(-c2c(-c3ccc(F)cc3)ncn2C2CCC(O)CC2)n1 (stereo unspecified) (10 µM) 0
NC(=O)c1ccc2nc(-c3ccc(Oc4ccc(Cl)cc4)cc3)[nH]c2c1 (10 µM) 0
Cc1cc(C)c(/C=C2\C(=O)Nc3ccccc32)[nH]1 [Semaxinib] (10 µM) 0
COc1ccc(COc2ccc(Cc3cnc(N)nc3N)cc2OC)cc1 (10 µM) 0
CN1CCN(c2ccc(Nc3cc(-c4cccc(-n5ccc6cc(C7CC7)cc(F)c6c5=O)c4CO)cn(C)c3=O)nc2)CC1 (2.5 µM) 0
C=CC(=O)N1CCC[C@@H](n2nc(-c3ccc(Oc4ccccc4)cc3)c(C(N)=O)c2N)C1 [Btk inhibitor 2] (10 µM) 0
Cc1c(NC(=O)c2cc3c(s2)CCCC3)cccc1-c1cn(C)c(=O)c(Nc2ccc([C@@H]3C(=O)N(C)CCN3C)cc2)n1 (10 µM) 0
CCOc1ccn(-c2ccc(F)cc2)c(=O)c1C(=O)Nc1ccc(Oc2ccnc(N)c2Cl)c(F)c1 (10 µM) 0
CCn1c(=O)c2cc(C(N)=O)c(N)nc2n(C2CC2)c1=O (10 µM) 0

Three structures from above, arranged by count of non-hydrogen atoms, largest number first:
kinase-Nluc reporter destabilization hit call, inactive:
CC(C)(/C=C(\C#N)C(=O)N1CCC[C@@H](n2nc(-c3ccc(Oc4ccccc4)cc3F)c3c(N)ncnc32)C1)N1CCN(C2COC2)CC1 (2.5 µM) 0
Cn1c(=O)n(-c2ccc(C(C)(C)C#N)cc2)c2c3cc(-c4cnc5ccccc5c4)ccc3ncc21 [Dactolisib (Tosylate)] (10 µM) 0
NC(=O)c1ccc2nc(-c3ccc(Oc4ccc(Cl)cc4)cc3)[nH]c2c1 (10 µM) 0
